{"sequences": {"note": "The chains behind the UniProt entries cited, without tags or fusion partners. Residues count along the entry.", "UniProt Q04912, residues 25-1400": "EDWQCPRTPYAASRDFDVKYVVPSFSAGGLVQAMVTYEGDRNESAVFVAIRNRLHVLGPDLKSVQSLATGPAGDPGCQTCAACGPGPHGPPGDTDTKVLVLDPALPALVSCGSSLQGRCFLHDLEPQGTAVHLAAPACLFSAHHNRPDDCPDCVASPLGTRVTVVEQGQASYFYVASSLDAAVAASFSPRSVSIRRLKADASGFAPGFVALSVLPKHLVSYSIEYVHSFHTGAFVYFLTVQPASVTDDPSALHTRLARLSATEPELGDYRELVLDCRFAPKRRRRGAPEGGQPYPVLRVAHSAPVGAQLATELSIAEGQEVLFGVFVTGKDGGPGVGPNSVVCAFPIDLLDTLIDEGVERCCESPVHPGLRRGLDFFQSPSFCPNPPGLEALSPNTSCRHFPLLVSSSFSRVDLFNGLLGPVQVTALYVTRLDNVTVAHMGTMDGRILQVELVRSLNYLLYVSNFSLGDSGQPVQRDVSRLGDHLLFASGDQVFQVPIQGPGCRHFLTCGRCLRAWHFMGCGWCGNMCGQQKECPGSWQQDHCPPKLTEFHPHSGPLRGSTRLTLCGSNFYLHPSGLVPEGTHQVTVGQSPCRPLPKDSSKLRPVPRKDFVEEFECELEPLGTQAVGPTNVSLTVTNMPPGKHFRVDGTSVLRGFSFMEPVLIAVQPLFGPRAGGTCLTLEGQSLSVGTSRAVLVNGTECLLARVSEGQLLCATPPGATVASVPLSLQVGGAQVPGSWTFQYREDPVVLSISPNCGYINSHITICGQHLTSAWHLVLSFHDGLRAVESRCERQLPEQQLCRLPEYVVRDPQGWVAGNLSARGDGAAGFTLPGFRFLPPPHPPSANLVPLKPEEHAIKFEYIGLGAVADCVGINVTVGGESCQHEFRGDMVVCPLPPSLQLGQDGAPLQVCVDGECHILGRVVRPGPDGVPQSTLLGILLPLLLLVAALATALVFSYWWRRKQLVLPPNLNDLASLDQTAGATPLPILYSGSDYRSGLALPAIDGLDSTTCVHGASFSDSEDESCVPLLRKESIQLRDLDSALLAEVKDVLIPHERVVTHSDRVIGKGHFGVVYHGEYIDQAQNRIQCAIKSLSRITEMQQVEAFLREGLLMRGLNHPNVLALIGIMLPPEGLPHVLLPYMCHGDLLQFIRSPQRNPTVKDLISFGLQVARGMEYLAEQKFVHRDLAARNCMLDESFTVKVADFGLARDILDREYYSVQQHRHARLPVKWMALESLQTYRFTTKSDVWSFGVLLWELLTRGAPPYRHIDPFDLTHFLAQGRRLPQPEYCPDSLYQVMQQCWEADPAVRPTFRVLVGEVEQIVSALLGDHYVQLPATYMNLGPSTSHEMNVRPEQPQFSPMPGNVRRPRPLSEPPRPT"}, "source": "patent US20190352422A1", "about": "(PCM TARGETECH, published 2019)", "binders": {"B1": {"name": "Humanized PCM5B14 H2L4 (IgG1/κ, designated as H5B14) (antibody, V domains shown)", "VH": "QVQLVQSGAEVKKPGATVKISCKVSGYTFTDYHMDWVQQAPGKGLEWMGDINPNNGGAIYNQKFKGRVTITADTSTDTAYMELSSLRSEDTAVYYCARSHYDYAGGAWFAYWGQGTLVTVSR", "VL": "EIVMTQSPGTLSLSPGERATLSCKSSQSLLFSGNQKNYLAWYQQKPGQAPRLLIYWASTRASGIPDRFSGSGSGTDFTLTISRLEPEDFAVYYCQQYYSFPRTFGQGTKLEIKR", "notes": "also called H5B14H2L4; Humanized 5B14"}}, "target": "human RON receptor (human, UniProt Q04912 25-1400)", "experiment": "flow cytometry on HT29 cells", "note": "Results are given in words; binding and its absence hold for the method and conditions named. Some entries that bind do so weakly or less than the wild type.", "data": [{"binder": "B1", "values": [{"measurement": "binding", "result": "binds"}]}]}
